Assay results published in patent US8389766B2, “Insecticidal compounds” (Syngenta Crop Protection LLC, priority 2006, dated 2013).
Some of these results come from one statement about several compounds together.

Columns and labels:
Format in all cases: in vivo
Diabrotica balteata = Diabrotica balteata (corn root worm) larvae test on artificial diet; conditions: 200 ppm (concentration in well 18 ppm), L2 larvae, larval mortality, growth regulation after 5 days
Myzus persicae = Myzus persicae (green peach aphid) sunflower leaf disc spray test; conditions: 200 ppm sprayed on sunflower leaf discs, mixed ages; mortality 6 DAT
Tetranychus urticae = Tetranychus urticae (two-spotted spider mite) bean leaf disc spray test; conditions: 200 ppm sprayed on bean leaf discs, mixed ages; egg, larval and adult mortality 8 days later
Plutella xylostella = Plutella xylostella (diamond back moth) larvae test on artificial diet; conditions: 200 ppm (concentration in well 18 ppm), L2 larvae, larval mortality, growth regulation after 6 days
Heliothis virescens = Heliothis virescens (tobacco budworm) egg test on artificial diet; conditions: 200 ppm (concentration in well 18 ppm), eggs 0-24 h old on artificial diet; egg mortality, larval mortality, growth regulation after 4 days
Spodoptera littoralis = Spodoptera littoralis (Egyptian cotton leafworm) cotton leaf disc spray test; conditions: 200 ppm sprayed on cotton leaf discs, 5 L1 larvae; mortality, feeding behaviour, growth regulation 3 DAT
Thrips tabaci = Thrips tabaci (onion thrips) sunflower leaf disc spray test; conditions: 200 ppm sprayed on sunflower leaf discs, mixed ages; mortality after 7 days

Cc1cc(C(F)(C(F)(F)F)C(F)(F)C(F)(F)F)cc(Br)c1NC(=O)c1ccc(C#N)c(NC(=O)c2ccccc2)c1 (stereo not drawn) [A114]
at least 80%: control of Diabrotica balteata (Diabrotica balteata) | control of Myzus persicae (Myzus persicae) | control of Tetranychus urticae (Tetranychus urticae) | control of Plutella xylostella (Plutella xylostella) | control of Heliothis virescens (Heliothis virescens) | control of Spodoptera littoralis (Spodoptera littoralis) | control of Thrips tabaci (Thrips tabaci)

CCc1cc(C(F)(C(F)(F)F)C(F)(F)F)cc(Br)c1NC(=O)c1ccc(C#N)c(NC(=O)c2ccccc2C)c1 [A122]
at least 80%: control of Diabrotica balteata (Diabrotica balteata) | control of Myzus persicae (Myzus persicae) | control of Tetranychus urticae (Tetranychus urticae) | control of Plutella xylostella (Plutella xylostella) | control of Heliothis virescens (Heliothis virescens) | control of Spodoptera littoralis (Spodoptera littoralis) | control of Thrips tabaci (Thrips tabaci)

CCc1cc(C(F)(C(F)(F)F)C(F)(F)C(F)(F)F)cc(Br)c1NC(=O)c1ccc(C#N)c(NC(=O)c2ccccc2C)c1 (stereo not drawn) [A142]
at least 80%: control of Diabrotica balteata (Diabrotica balteata) | control of Myzus persicae (Myzus persicae) | control of Tetranychus urticae (Tetranychus urticae) | control of Plutella xylostella (Plutella xylostella) | control of Heliothis virescens (Heliothis virescens) | control of Spodoptera littoralis (Spodoptera littoralis) | control of Thrips tabaci (Thrips tabaci)

CCc1cc(C(F)(C(F)(F)F)C(F)(F)C(F)(F)F)cc(Br)c1NC(=O)c1ccc(C#N)c(NC(=O)c2ccccc2Cl)c1 (stereo not drawn) [A143]
at least 80%: control of Diabrotica balteata (Diabrotica balteata) | control of Myzus persicae (Myzus persicae) | control of Tetranychus urticae (Tetranychus urticae) | control of Plutella xylostella (Plutella xylostella) | control of Heliothis virescens (Heliothis virescens) | control of Spodoptera littoralis (Spodoptera littoralis) | control of Thrips tabaci (Thrips tabaci)

COCc1cc(C(F)(C(F)(F)F)C(F)(F)F)cc(C)c1NC(=O)c1ccc(C#N)c(NC(=O)c2ccc(F)cc2Cl)c1 [A176]
at least 80%: control of Diabrotica balteata (Diabrotica balteata) | control of Myzus persicae (Myzus persicae) | control of Tetranychus urticae (Tetranychus urticae) | control of Plutella xylostella (Plutella xylostella) | control of Heliothis virescens (Heliothis virescens) | control of Spodoptera littoralis (Spodoptera littoralis) | control of Thrips tabaci (Thrips tabaci)

COCc1cc(C(F)(C(F)(F)F)C(F)(F)C(F)(F)F)cc(C)c1NC(=O)c1ccc(C#N)c(NC(=O)c2ccc(C#N)cc2)c1 (stereo not drawn) [A189]
at least 80%: control of Diabrotica balteata (Diabrotica balteata) | control of Myzus persicae (Myzus persicae) | control of Tetranychus urticae (Tetranychus urticae) | control of Plutella xylostella (Plutella xylostella) | control of Heliothis virescens (Heliothis virescens) | control of Spodoptera littoralis (Spodoptera littoralis) | control of Thrips tabaci (Thrips tabaci)

CCc1cc(C(F)(C(F)(F)F)C(F)(F)C(F)(F)F)cc(C)c1NC(=O)c1ccc(C#N)c(NC(=O)c2cccnc2Cl)c1 (stereo not drawn) [A190]
at least 80%: control of Diabrotica balteata (Diabrotica balteata) | control of Myzus persicae (Myzus persicae) | control of Tetranychus urticae (Tetranychus urticae) | control of Plutella xylostella (Plutella xylostella) | control of Heliothis virescens (Heliothis virescens) | control of Spodoptera littoralis (Spodoptera littoralis) | control of Thrips tabaci (Thrips tabaci)

CCc1cc(C(F)(C(F)(F)F)C(F)(F)C(F)(F)F)cc(C)c1NC(=O)c1ccc(C#N)c(NC(=O)c2cccnc2)c1 (stereo not drawn) [A192]
at least 80%: control of Diabrotica balteata (Diabrotica balteata) | control of Myzus persicae (Myzus persicae) | control of Tetranychus urticae (Tetranychus urticae) | control of Plutella xylostella (Plutella xylostella) | control of Heliothis virescens (Heliothis virescens) | control of Spodoptera littoralis (Spodoptera littoralis) | control of Thrips tabaci (Thrips tabaci)

CCc1cc(C(F)(C(F)(F)F)C(F)(F)C(F)(F)F)cc(C)c1NC(=O)c1ccc(C#N)c(NC(=O)c2cccnc2F)c1 (stereo not drawn) [A194]
at least 80%: control of Diabrotica balteata (Diabrotica balteata) | control of Myzus persicae (Myzus persicae) | control of Tetranychus urticae (Tetranychus urticae) | control of Plutella xylostella (Plutella xylostella) | control of Heliothis virescens (Heliothis virescens) | control of Spodoptera littoralis (Spodoptera littoralis) | control of Thrips tabaci (Thrips tabaci)
